From US4150126A, “Novel enol esters of steroids, compositions containing such compounds, processes for their preparation and methods of treatment therewith” (Aktiebolaget Leo, priority 1976, dated 1979)

Assays:
[1] = tested on: Walker carcinosarcoma 256; test: Walker carcinosarcoma 256 tumour growth inhibition in rats, p.o.; format: in vivo, Sprague-Dawley rats; settings: therapeutic index, ratio LD50/ED50; Walker carcinosarcoma 256, p.o.
Text: (§1) LD50 is the dose that causes a 50 percent lethality of the animals, and ED50 is the dose that causes a 50 percent reduction of tumour size.
(§2) From the data below it is obvious that the compounds have a very low toxicity, and that the therapeutic indexes (T.I.), i.e. the ratios LD50/ED50, are very high.
(§3) The experimental design is in accordance with the standards set by the CCNSC (Cancer Cheomotherapy Reports, January 1959 and December 1962).
Walker carcinosarcoma 256
(§4) Experimental animals: Sprague-Dawley rats.
Tumour implant: Tumour pieces with 2-4 mm diameter, subcu-
Therapy: Daily p.o. administration for 5 days starting on
the day following implantation.
Termination: The animals are killed on the 9th day.
(§5) Evaluation: Weights of tumours of test animals are compared
(§6) with those of control animals.

[2] = tested on: Hepatoma AH 130; test: Hepatoma AH 130 tumour growth inhibition in rats, i.p.; format: in vivo, Sprague-Dawley rats; settings: therapeutic index, ratio LD50/ED50; Hepatoma AH 130, i.p.
Text: as §1, §2, §3, §4
Tumour implant: 5 × 10^6 tumour cells i.p.
Therapy: One injection i.p. on the day following implantation.
Termination: The animals are killed on the 8th day.
as §5, §6

SMILES	T.I. [1]	T.I. [2]
CC(=O)O[C@H]1CC[C@H]2[C@@H]3CCC4CC(OC(=O)CCCc5ccc(N(CCCl)CCCl)cc5)=CC[C@]4(C)[C@H]3CC[C@]12C (stereo partly drawn) [1:12, 17β-acetoxy-3-[4-(4-(N,N-bis(2-chloroethyl)amino)phenyl)butanoyloxy]androst-2-ene]	150	> 8
CC(=O)O[C@]1(C(C)=O)CC[C@H]2[C@@H]3CC=C4C=C(OC(=O)Cc5ccc(N(CCCl)CCCl)cc5)CC[C@]4(C)[C@H]3CC[C@@]21C [Compound 1:14, 17-acetoxy-3-[4-(N,N-bis(2-chloroethyl)amino)phenylacetoxy]pregna-3,5-dien-20-one]	> 125	> 30
CC(=O)O[C@]1(C(C)=O)CC[C@H]2[C@@H]3CC=C4C=C(OC(=O)c5ccc(C)c(N(CCCl)CCCl)c5)CC[C@]4(C)[C@H]3CC[C@@]21C [2:11, 17-acetoxy-3-[3-(N,N-bis(2-chloroethyl)amino)-4-methylbenzoyloxy]pregna-3,5-dien-20-one]		> 5
C#C[C@]1(OC(C)=O)CC[C@H]2[C@@H]3CC=C4C=C(OC(=O)CCCc5ccc(N(CCCl)CCCl)cc5)CC[C@@H]4[C@H]3CC[C@@]21C [Compound 2:2, 17β-acetoxy-3/4-(4-(N,N-bis(2-chloroethyl)amino)phenyl)butanoyloxy/-17α-ethynylestra-3,5-diene]	40	> 10
CC(=O)OCC(=O)[C@@]1(OC(C)=O)CC[C@H]2[C@@H]3CC=C4C=C(OC(=O)CCCc5ccc(N(CCCl)CCCl)cc5)CC[C@]4(C)[C@H]3CC[C@@]21C [1:16, 17,21-diacetoxy-3-[4-(4-(N,N-bis(2-chloroethyl)amino)phenyl)butanoyloxy]-pregna-3,5-dien-20-one]	> 30	
CC(=O)O[C@H]1CC[C@H]2[C@@H]3CC=C4C=C(OC(=O)CCCc5ccc(N(CCCl)CCCl)cc5)CC[C@]4(C)[C@H]3CC[C@]12C [1:11, 17β-acetoxy-3-[4-(4-(N,N-bis(2-chloroethyl)amino)phenyl)butanoyloxy]androsta-3,5-diene]	50	> 12
CC(=O)[C@H]1CC[C@H]2[C@@H]3CC=C4C=C(OC(=O)CCCc5ccc(N(CCCl)CCCl)cc5)CC[C@]4(C)[C@H]3CC[C@]12C [Compound 1:2, 3-/4-(4-(N,N-bis(2-chloroethyl)amino)phenyl)butanoyloxy/pregna-3,5-dien-20-one]	83	13
CC(=O)O[C@]1(C(C)=O)CC[C@H]2[C@@H]3CC=C4C=C(OC(=O)CCCc5ccc(N(CCCl)CCCl)cc5)CC[C@]4(C)[C@H]3CC[C@@]21C [Compound 1:1, 17-acetoxy-3-/4-(4-(N,N-bis(2-chloroethyl)amino)phenyl)butanoyloxy/pregna-3,5-dien-20-one]	> 125	
